According to publication PMC7348086:
Results are given in words; binding and its absence hold for the method and conditions named. Binding seen in cells or lysates may run through a third protein. Some entries that bind do so weakly or less than the wild type.

Protein sequences, listed by entry. Tags and fused reporters are not part of them.
UniProt P35372: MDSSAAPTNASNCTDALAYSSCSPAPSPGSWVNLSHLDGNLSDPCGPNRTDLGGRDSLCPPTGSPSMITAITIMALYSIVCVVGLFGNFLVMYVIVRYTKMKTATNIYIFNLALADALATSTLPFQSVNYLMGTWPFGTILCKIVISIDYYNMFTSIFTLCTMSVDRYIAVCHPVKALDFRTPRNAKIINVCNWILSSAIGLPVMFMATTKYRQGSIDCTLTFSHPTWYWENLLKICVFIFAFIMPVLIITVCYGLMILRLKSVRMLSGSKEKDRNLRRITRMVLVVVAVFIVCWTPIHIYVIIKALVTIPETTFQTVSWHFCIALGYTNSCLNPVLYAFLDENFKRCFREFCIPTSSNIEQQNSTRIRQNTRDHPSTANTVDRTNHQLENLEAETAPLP
UniProt P25098: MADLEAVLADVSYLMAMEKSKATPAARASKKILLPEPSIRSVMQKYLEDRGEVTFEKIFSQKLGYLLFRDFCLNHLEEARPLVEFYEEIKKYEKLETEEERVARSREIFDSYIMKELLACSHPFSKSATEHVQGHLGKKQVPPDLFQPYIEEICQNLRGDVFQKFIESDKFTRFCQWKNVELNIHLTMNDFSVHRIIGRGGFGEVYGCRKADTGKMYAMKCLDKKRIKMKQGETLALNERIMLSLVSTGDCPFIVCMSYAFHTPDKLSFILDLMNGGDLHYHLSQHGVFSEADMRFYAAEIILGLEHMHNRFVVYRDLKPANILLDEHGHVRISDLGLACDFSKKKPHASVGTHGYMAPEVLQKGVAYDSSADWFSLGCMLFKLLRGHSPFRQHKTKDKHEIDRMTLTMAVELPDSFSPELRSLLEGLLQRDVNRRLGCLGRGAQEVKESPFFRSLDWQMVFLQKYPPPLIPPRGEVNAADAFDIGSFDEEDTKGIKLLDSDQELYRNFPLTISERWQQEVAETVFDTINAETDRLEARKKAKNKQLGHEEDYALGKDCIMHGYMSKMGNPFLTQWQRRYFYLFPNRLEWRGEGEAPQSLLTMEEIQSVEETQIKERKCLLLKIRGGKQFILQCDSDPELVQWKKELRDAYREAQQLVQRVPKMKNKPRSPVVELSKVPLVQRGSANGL
UniProt P32121: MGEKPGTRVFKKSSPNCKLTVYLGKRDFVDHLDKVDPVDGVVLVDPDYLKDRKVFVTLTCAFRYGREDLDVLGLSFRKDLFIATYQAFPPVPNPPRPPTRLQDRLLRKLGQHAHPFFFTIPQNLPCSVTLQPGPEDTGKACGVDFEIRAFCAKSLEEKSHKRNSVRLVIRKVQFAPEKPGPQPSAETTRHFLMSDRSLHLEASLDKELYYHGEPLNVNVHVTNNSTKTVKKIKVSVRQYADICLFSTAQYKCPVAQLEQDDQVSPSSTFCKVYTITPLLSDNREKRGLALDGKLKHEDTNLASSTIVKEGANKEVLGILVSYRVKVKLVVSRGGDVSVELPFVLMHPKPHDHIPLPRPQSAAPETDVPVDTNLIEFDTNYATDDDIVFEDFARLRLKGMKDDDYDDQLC

What was measured:
[1] = target: μ receptor, C‐terminally sYFP2‐labelled (MOP‐sYFP2) (UniProt P35372); assay: FRET or BRET; single HEK293T cells co‐expressing MOP‐sYFP2, GRK2‐mTur2 and unlabelled Gαi, Gß1, Gγ2; whole‐cell voltage clamp, −90 mV stepped to +30 mV; 10 μM DAMGO; room temperature
[2] = target: μ receptor, C‐terminally sYFP2‐labelled (MOP‐sYFP2) (UniProt P35372); assay: FRET or BRET; single HEK293T cells co‐expressing MOP‐sYFP2, Arr3‐mTur2 and wild‐type GRK2; whole‐cell voltage clamp, −90 mV stepped to +30 mV; 30 μM Met‐enkephalin (saturating); room temperature

| Substance | binding [1] | binding [2] |
| --- | --- | --- |
| GRK2‐mTur2 (mTur2‐labelled GPCR kinase 2) (from UniProt P25098 1-689) (enzyme) | binds |  |
| arrestin3‐mTur2 (mTur2‐labelled arrestin3) (from UniProt P32121 1-409) |  | binds |
